Assay results published in publication PMC7819943, “Rice protein-binding microarrays: a tool to detect cis-acting elements near promoter regions in rice”.
The other results are listed elsewhere or left out.

Amino acid sequences for entries named in this document (tags omitted).
UniProt Q0JBA9, entry or part of it: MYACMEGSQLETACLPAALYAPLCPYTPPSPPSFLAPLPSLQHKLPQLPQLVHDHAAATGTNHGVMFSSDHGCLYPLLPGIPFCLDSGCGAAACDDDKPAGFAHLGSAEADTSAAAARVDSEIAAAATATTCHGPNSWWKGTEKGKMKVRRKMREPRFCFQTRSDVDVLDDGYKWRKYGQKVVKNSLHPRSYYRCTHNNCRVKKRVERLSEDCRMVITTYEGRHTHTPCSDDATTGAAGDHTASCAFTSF

biological target: OsWRKY34 (Oryza sativa, UniProt Q0JBA9 1-250); assay: protein-binding microarray (RPBM); PBS, 2% BSA, 51.3 ng/ul salmon testes DNA, 50 uM zinc acetate, 200 nM TF, 25 C, 1 h; high values mean tight binding; settings: protein: recombinant; tags: N-terminal polyhistidine and DsRed monomer fusion (pET32a); label: CyDye5-dUTP incorporated in the synthesized complementary strand; 3' TTTTT single-stranded linker to array surface; dsDNA, one strand shown
Summary of the method: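 In PBS with 2% BSA, salmon testes DNA and 50 µM zinc acetate, 200 nM protein was incubated on a custom Agilent array at 25 °C for 1 h and then washed off. The array had been made double-stranded by primer extension with Cy5-dUTP and blocked with 2% BSA. The proteins were transcription factors fused N-terminally to polyhistidine and DsRed, expressed in E. coli BL21-CodonPlus and purified on Ni–NTA. The binding signal is per-feature fluorescence intensity (arbitrary units) from an Axon 4000B scanner.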

Sequence | binding signal
GTGCGAGCCCGTTCCGTTCCTTGTTCCTTGCGATGAGAGGCGGAGTCACCTAGTGCAG | 8460 fluorescence intensity (a.u.)
GAAGCTTTTTTATCCTTTTTTTAGTCGGACTTTTCTTTTACGGAGTCACCTAGTGCAG | 9660 fluorescence intensity (a.u.)
AGGGTGGGTTACGTCGACAGACACTGGATAAGATCAATCCCGGAGTCACCTAGTGCAG | 11900 fluorescence intensity (a.u.)
TTAGCCTAGCCCGACCGACCGGTAAACACGCGCCCCACCACGGAGTCACCTAGTGCAG | 8070 fluorescence intensity (a.u.)
AACTACTACCTACCCATTCCGTTTCCTTCCGTCCTTGCCACGGAGTCACCTAGTGCAG | 9170 fluorescence intensity (a.u.)
GTATTCCTCTCTCTCTCTCTCCTTTTCTTTTCTTCTTTTTCGGAGTCACCTAGTGCAG | 10000 fluorescence intensity (a.u.)
TCGGTGACAAAGGTGGTGGGATCTTGCTTCTCTTCCTGCACGGAGTCACCTAGTGCAG | 8300 fluorescence intensity (a.u.)
CCCTTTGACCTACCGCGGCGCCGCCCACCTGCGCCGGCATCGGAGTCACCTAGTGCAG | 8300 fluorescence intensity (a.u.)
GCGGCAGGTTTCGGCGGCGGGGCGGGCGGCAGGTGTCGGCCGGAGTCACCTAGTGCAG | 20000 fluorescence intensity (a.u.)
TGCTCAACTTCTGGTCTTTTTTCTTATGGCTACTTCTATCCGGAGTCACCTAGTGCAG | 11600 fluorescence intensity (a.u.)
GCAGTGGTCACGCCCAAATCATCTTCTCGCCTCTGCTTCTCGGAGTCACCTAGTGCAG | 8540 fluorescence intensity (a.u.)
ATAGGAATTTTTTGTTCTCCATGCACAGGATTCTTACAACCGGAGTCACCTAGTGCAG | 8200 fluorescence intensity (a.u.)
ACCATTTGTTTTTTGATACCTTGTGTGCTTGCTCTGCAATCGGAGTCACCTAGTGCAG | 13300 fluorescence intensity (a.u.)
TTTTTGTCAAAAGTAGTACTCCATATATGTTTTTTTACTACGGAGTCACCTAGTGCAG | 8900 fluorescence intensity (a.u.)
GTGTTTGGGGTTCTTGGAATTGATCATGGCAGGTGGCGAACGGAGTCACCTAGTGCAG | 8730 fluorescence intensity (a.u.)
CGCTGCCTAGATCTTTCCTCTCTCTCGCACCCTCTTATTGCGGAGTCACCTAGTGCAG | 12000 fluorescence intensity (a.u.)
AGTGTTTTTCTTCCAGCATTACTACGTACTGTACCTTCTTCGGAGTCACCTAGTGCAG | 8460 fluorescence intensity (a.u.)
AGCTATCCTGTTTCAATGTACTTCAGCTGACTTGAACAATCGGAGTCACCTAGTGCAG | 9900 fluorescence intensity (a.u.)
ATATGTAGTATTCCTATCCTATGTTTGTGGATTCTGACTTCGGAGTCACCTAGTGCAG | 8200 fluorescence intensity (a.u.)
TTTAGACTTGCTCCGCTTCTTTAAGGCATTTTTGTTTGGACGGAGTCACCTAGTGCAG | 8650 fluorescence intensity (a.u.)
AGCTTAACACGCGCCACTTGCCCCTATTTAGCCGCGCCATCGGAGTCACCTAGTGCAG | 9920 fluorescence intensity (a.u.)
TTCGTGGTTTCGTTCAGCTTGATTTCGCTTGACACATCGACGGAGTCACCTAGTGCAG | 9110 fluorescence intensity (a.u.)
CTCCGCTCACCAAGCCCTCAAATCTCACCCGCTGCCTCCACGGAGTCACCTAGTGCAG | 8620 fluorescence intensity (a.u.)
CCAATCACTGTTCGGCGTTCTAATCTGTTTTTTTTCTCCTCGGAGTCACCTAGTGCAG | 11100 fluorescence intensity (a.u.)
CTGCTCAGCTGCTTCTGCCATGATGTCTCCCTGTGTTTTCCGGAGTCACCTAGTGCAG | 8270 fluorescence intensity (a.u.)
TTGTCCCGTCACTCGTTTCTTTTTTTATCCAGTAATTATTCGGAGTCACCTAGTGCAG | 12200 fluorescence intensity (a.u.)
TTTGTACCAGCTGCCTTCTTTCCACCAGTCGACGACGACACGGAGTCACCTAGTGCAG | 11500 fluorescence intensity (a.u.)

Quoted from the listing.
For binding signal, CGCTGCCTAGATCTTTCCTCTCTCTCGCACCCTCTTATTGCGGAGTCACCTAGTGCAG is listed with 12000 fluorescence intensity (a.u.)
For binding signal, GTGCGAGCCCGTTCCGTTCCTTGTTCCTTGCGATGAGAGGCGGAGTCACCTAGTGCAG is listed with 8460 fluorescence intensity (a.u.)
For binding signal, AACTACTACCTACCCATTCCGTTTCCTTCCGTCCTTGCCACGGAGTCACCTAGTGCAG is listed with 9170 fluorescence intensity (a.u.)

More records

Sequence | binding signal
GAGTAATGAGGGGCTGTTTAGATGGGACTAAAAACTTTTTCGGAGTCACCTAGTGCAG | 8450 fluorescence intensity (a.u.)
AGTTCATCACAGCTTCCCACACTCGTTTTCCCGTCTCGATCGGAGTCACCTAGTGCAG | 8580 fluorescence intensity (a.u.)
TTTAGCTGTTCTTTTCAACTCGTACGAAATTTCCTTAGATCGGAGTCACCTAGTGCAG | 9170 fluorescence intensity (a.u.)
TTCCTAATTTACTACTACATCTACATGCAAGCTTTGCTCCCGGAGTCACCTAGTGCAG | 8870 fluorescence intensity (a.u.)
TCATAGGGGTAGTGTTTGCGTGTGTATTCATAGGGGCGAGCGGAGTCACCTAGTGCAG | 8500 fluorescence intensity (a.u.)
ACATTCTCCGCGCCAACACGCATTAACGTTCTGGAACTCTCGGAGTCACCTAGTGCAG | 13100 fluorescence intensity (a.u.)
CATTTACATTTGGTTTCTTGAAACAGAGCAATCTATAGCACGGAGTCACCTAGTGCAG | 8900 fluorescence intensity (a.u.)
TGTCCTTTGTTGTGGTGTGGTGGTGGGCATCTGGACCGTTCGGAGTCACCTAGTGCAG | 29700 fluorescence intensity (a.u.)
CCTTCTGCTGCCCTCCCCTCTCTCTCTCTTTCGTTTTTTTCGGAGTCACCTAGTGCAG | 10900 fluorescence intensity (a.u.)
GTTGTTTGCATTAATTCATACCTAGGAAGTTTTTTTTAACCGGAGTCACCTAGTGCAG | 8940 fluorescence intensity (a.u.)
TATCTGGTTTTGGGGTTCAGGGCCATGAATTAGATTCGGGCGGAGTCACCTAGTGCAG | 9940 fluorescence intensity (a.u.)
CCATCTCCATGACAGCTTAGTTAGTTTCTCTGGTTTGCTACGGAGTCACCTAGTGCAG | 8070 fluorescence intensity (a.u.)
CTAGTTTTGGTCTTGTGATAGGTTATTTGCTTACGATTATCGGAGTCACCTAGTGCAG | 9430 fluorescence intensity (a.u.)
AAGACAGCCGCTACGCACACACACGTTTTGTTTATTGCAGCGGAGTCACCTAGTGCAG | 9860 fluorescence intensity (a.u.)
CATTTCTTTTTGCGCCTGGCATATCCCTCGCGCGACTAACCGGAGTCACCTAGTGCAG | 10900 fluorescence intensity (a.u.)
GCTGTCGATTTCTCCCTCCTTCCTGCCTGTTCTTGATTTTCGGAGTCACCTAGTGCAG | 8630 fluorescence intensity (a.u.)
CAGGACCACTTTCTTTCTCCCATCGAGTTCGCGAGGAGGACGGAGTCACCTAGTGCAG | 8830 fluorescence intensity (a.u.)
ACTGAGTACTGTTCGGTTGGGTCTGGCATCGGATGTTTCCCGGAGTCACCTAGTGCAG | 8340 fluorescence intensity (a.u.)
CTCCACTACATTTTGTACGCACCAACACTGGCAAACACTACGGAGTCACCTAGTGCAG | 9850 fluorescence intensity (a.u.)
AAAGACCTCCAACCTTGTATTTGACCTTACTCCATCCGTCCGGAGTCACCTAGTGCAG | 10600 fluorescence intensity (a.u.)
GCAATTAGCATCTATTATGATACCAACAAATTTTCGTTTTCGGAGTCACCTAGTGCAG | 8830 fluorescence intensity (a.u.)
ATTAATTAGACTCAGAAGATTTGTCTCGCGATTTCCATGCCGGAGTCACCTAGTGCAG | 9240 fluorescence intensity (a.u.)
TCGTGGGAAGGGCAAAGAAAAGACGGGGTGGTGGGCATCGCGGAGTCACCTAGTGCAG | 8420 fluorescence intensity (a.u.)
GGGCCCCTTTGAATCACAGGGTAGAAAAAACATTGGAATACGGAGTCACCTAGTGCAG | 11600 fluorescence intensity (a.u.)
CTTACCAAATTTTGACTATTTAACAATATTATCAAGTTTTCGGAGTCACCTAGTGCAG | 8100 fluorescence intensity (a.u.)
ACGTTTTGCCCTATTTTTGCATGCCTACCGATGTACGTGCCGGAGTCACCTAGTGCAG | 8270 fluorescence intensity (a.u.)
GGTTTGGGTAGTCCTCTCCGTGGGCCGGCTCCTGCCTTGCCGGAGTCACCTAGTGCAG | 14600 fluorescence intensity (a.u.)
